Data as given in publication doi:10.1101/2020.08.20.259994.
No constants are given. Whether binding was seen depends on the method and setting. Binding seen in cells or lysates may run through a third protein. Some results given as binding are weak or reduced against the parent protein; the word gives no strength.

The chains behind the UniProt entries cited, without tags or fusion partners.
UniProt P35820: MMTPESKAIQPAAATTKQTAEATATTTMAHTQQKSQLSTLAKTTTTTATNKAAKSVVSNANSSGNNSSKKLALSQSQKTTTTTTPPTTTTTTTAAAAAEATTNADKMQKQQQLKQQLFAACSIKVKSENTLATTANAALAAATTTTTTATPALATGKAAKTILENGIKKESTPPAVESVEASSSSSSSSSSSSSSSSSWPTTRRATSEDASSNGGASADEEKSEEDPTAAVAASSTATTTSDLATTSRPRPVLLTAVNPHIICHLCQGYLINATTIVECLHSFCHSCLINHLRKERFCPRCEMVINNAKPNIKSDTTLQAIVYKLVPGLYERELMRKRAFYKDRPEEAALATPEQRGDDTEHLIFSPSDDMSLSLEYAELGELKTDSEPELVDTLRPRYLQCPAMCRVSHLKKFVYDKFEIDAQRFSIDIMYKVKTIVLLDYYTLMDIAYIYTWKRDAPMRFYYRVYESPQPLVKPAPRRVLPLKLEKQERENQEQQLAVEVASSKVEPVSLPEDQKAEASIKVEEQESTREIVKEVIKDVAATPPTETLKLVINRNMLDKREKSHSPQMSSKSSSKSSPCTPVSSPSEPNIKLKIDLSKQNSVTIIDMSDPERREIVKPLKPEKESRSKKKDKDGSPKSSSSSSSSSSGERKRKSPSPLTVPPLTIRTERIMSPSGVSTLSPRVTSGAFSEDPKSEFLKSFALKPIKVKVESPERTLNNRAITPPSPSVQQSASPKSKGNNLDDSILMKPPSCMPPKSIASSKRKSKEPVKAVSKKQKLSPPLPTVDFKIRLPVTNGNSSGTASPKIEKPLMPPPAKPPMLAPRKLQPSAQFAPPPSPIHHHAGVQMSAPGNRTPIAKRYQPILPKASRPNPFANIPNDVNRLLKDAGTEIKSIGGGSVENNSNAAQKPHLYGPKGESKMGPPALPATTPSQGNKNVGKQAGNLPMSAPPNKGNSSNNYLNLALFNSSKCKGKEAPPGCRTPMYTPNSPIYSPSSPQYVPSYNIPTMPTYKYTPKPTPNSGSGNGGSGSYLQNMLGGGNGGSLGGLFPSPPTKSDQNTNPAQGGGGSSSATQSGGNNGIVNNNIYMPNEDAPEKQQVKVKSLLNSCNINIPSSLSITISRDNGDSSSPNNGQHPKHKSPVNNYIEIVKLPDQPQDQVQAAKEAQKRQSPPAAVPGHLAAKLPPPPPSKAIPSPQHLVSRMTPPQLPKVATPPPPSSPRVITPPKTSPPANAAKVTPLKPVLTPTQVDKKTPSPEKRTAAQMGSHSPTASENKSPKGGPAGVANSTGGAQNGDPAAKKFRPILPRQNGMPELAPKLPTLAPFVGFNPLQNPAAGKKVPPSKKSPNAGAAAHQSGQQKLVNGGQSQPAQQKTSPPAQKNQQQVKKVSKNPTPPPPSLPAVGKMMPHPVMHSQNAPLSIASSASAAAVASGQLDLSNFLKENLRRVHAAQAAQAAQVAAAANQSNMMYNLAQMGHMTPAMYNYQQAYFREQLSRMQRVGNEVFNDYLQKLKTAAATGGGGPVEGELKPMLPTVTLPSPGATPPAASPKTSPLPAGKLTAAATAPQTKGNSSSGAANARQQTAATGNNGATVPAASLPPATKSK
UniProt Q24572: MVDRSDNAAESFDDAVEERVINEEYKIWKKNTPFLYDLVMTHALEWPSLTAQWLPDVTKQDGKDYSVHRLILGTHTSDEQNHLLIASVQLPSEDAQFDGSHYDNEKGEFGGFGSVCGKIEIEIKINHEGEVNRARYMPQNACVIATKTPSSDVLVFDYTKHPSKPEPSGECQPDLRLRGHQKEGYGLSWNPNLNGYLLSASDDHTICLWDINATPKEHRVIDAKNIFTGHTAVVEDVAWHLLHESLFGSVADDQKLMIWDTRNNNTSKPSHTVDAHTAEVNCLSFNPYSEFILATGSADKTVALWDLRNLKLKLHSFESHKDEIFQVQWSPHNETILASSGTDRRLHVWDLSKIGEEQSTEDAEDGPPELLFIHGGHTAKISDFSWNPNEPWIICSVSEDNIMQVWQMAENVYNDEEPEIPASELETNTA

B1: Pc (protein, UniProt P26017 1-390)
chain: MTGRGKGSKGKLGRDNATDDPVDLVYAAEKIIQKRVKKGVVEYRVKWKGWNQRYNTWEPEVNILDRRLIDIYEQTNKSSGTPSKRGIKKKEKEPDPEPESEEDEYTFTENDVDTHQATTSSATHDKESKKEKKHHHHHHHHHHIKSERNSGRRSESPLTHHHHHHHHESKRQRIDHSSSSNSSFTHNSFVPEPDSNSSSSEDQPLIGTKRKAEVLKESGKIGVTIKTSPDGPTIKPQPTQQVTPSQQQPFQDQQQAEKIASEAATQLKSEQQATPLATEAINTTPAESGAEEEEVANEEGNQQAPQVPSENNNIPKPCNNLAINQKQPLTPLSPRALPPRFWLPAKCNISNRVVITDVTVNLETVTIRECKTERGFFRERDMKGDSSPVA
B2: dRING (protein, UniProt Q9VB08 1-435)
chain: MTSLDPAPNKTWELSLYELQRKPQEVITDSTEIAVSPRSLHSELMCPICLDMLKKTMTTKECLHRFCSDCIVTALRSGNKECPTCRKKLVSKRSLRADPNFDLLISKIYPSREEYEAIQEKVMAKFNQTQSQQALVNSINEGIKLQSQNRPQRFRTKGGGGGGGGGGNGNGAANVAAPPAPGAPTAVGRNASNQMHVHDTASNDSNSNTNSIDRENRDPGHSGTSAASAITSASNAAPSSSANSGASTSATRMQVDDASNPPSVRSTPSPVPSNSSSSKPKRAMSVLTSERSEESESDSQMDCRTEGDSNIDTEGEGNGELGINDEIELVFKPHPTEMSADNQLIRALKENCVRYIKTTANATVDHLSKYLAMRLTLDLGADLPEACRVLNFCIYVAPQPQQLVILNGNQTLHQVNDKFWKVNKPMEMYYSWKKT
B3: Su(Z)12 (protein, UniProt Q9NJG9 1-900)
chain: MAPAKKREKDSNPDGSAANGIIGLTHGAPDASNAGSTVPPTAEGQVKLNGHQQEQELFLQAFEKPTQIYRYLRNRHETNPIFLNRTLSYMKERMSRNNKKRISFQVNSMLESITQKSEAVSQNYLHVIYDSLHEKLPARLDNESGEDLLQEQLLCEAGESVSVETTLYKITRSKRKDSTLDFQELLSKCSQIVYNPKDRVGEHATISIPLQTMRPMGEQHTLYKLLFRIKVLSPSTCNDENAETPPNKRSRPNEKMFGSELILYEKSSGFITEGEYEAMLQPLNSTSIKSFSPKKCTWETMPDSYIPLSLTYDVYQQSPMLKFHLTLSNEQLPEMISAPELQRYVQHLDAVAEMNYNNNNYNNNNNCSGLKNGSGGGNSTVCKTTPEHIQIVYNFMYSNNTRQQTEYTQELNCPWCGLDCLRLYALLKHLKLCHARFNFTYQPAGSGARIDVTINDAYDGSYAGSPYDLAGPSGSSFARTCGPVRRTSVTSLMVCRPRRQKTCLDEFLELDEDEISNQRSYITGHNRLYHHTETCLPVHPKELDIDSEGESDPLWLRQKTIQMIDEFSDVNEGEKELMKLWNLHVMRHGFVGDCQLPIACEMFLDAKGTEIVRKNLYRNFILHMCSLFDYGLIAAETVYKTVQKLQGLLSKYAAGQELMQRQREEQLKYWLDVGMHKKQEDPKTLKSPQKPAPPADQASTSSASTSGSGSGSSSMQPPKRMPAHLKRGSAASSPGVQSKGTENGTNGSNSSSSNSKNVAKKSADQPLSTLANTRERRSEYGQKRNVSGSRLAATPASKRKLSSKDNTVLNKRQRYSDGSPGTGIGNGHGGGSGSGANRNKSNNHSLPATSNNASSSSSNSKRAIARRRSTSERTKASGSTGGGAGGVRTRLSVPAKYERR
B4: ACF1 (protein, UniProt Q9V9T4 1-1476)
chain: MPICKREGFDLNQKEGKNETFHDNDQVFCCYITKRIFRDYEHYFRHVMVINSTVWQCEATGKENLTYEEAVKSERAARKKMEQFKQSLRAPVLLVVEHAQQSAVNTLNMIVAKFLRKRYFIGEEVSVQAKKNATYTVLGVKLDKNMPEPLNGIYEDTDNLVYRLRPNKGDPSAELDLPFRQLRRSRMEFNLENLSMFIKSNVSRVDGLLRPKPEAYKQYVTDPGVNFSTIFIGKMPRYSPAKIKKPDGKKQSTLNKYIVAGEATAAKSKAKAKSDAKSLAEELERVKREKEAKLIELEKQKAEKKAQLIERVENECNLLLQKTDDLERTDQKVLPRYRQIVTLLPEHLLGDAFMMREFMHTYTGLLSGIEVFRQNLSFYEMTRALTAREIAGPLSDILLVLLGTVFDLQKEEEEECAVTYLDRAAQTQEPYWSMAQAAKSHLYAKRHFSFKVNELPLDALTLSEVLRLHLLGSGAFVNEKAERWRVMYRNGYSSKEDPGLELRLEHSHILRILKNHSVYQLKFKDIMLLIRCLMSQIMTYSGTINLIEERMEQTAKARQDLRALVVGENKRLAAVEINRKKLTQMHHLEVNGVEPEKREALVEKLKKSIAELHAQSDQQHRKHELQMLKLHSQLFNFLVYLGMDRCYRKYYVLESMPGIFVEHSPDSLDTCLEQPITNKSQIEIRQQSALPKNRKDLRVYLLKLYGDDEKKTKKKAKHSLENKENQEHRLNGSAEPMDVESDSPEAPTHFELLMCSGDKRSCIVHDSRNGQRQRWAYIYKAEEIDELIKALNPNGLREYELLQELSVLRSLIEQHAKTCPVDLLSLENETMRKKFMAAMESETNRKYGEANFGLPNGTDLNEVMRLHLVDRIIQFENDIYTGDLGRLKVKDMEKWRSDLLGGNYDAQCKLQWGPGGKLEDEAGSDNESHETHEEDDGALLGKYARKPYRDPGMYLAASADTKPLPDSDDEEDQHTNAVSIPIAVHNMASALLQVEQAIGKRFLKEPYGMKKWDPKQEALKLACDSRLHQWEVSLMESTSFAQVFLHLNILHDCIQWRRSTNKSLCKVCRRGSDPEKMLLCDECNAGTHMFCLKPKLRSVPPGNWYCNDCVKSLGLSNGQNEKDKKQATKKKRKFIVEEEDDEATDEEEEEKKDDDMTDEDAEHENEKHDEDVEDDESVTSTPSSSRVNGRILRRPRTRPTSRRLTSKEIEEHAQEDVDSGDVSDDASLTAGEDTIEDESDEEKVCQKCFYDGGEIKCVQCRLFFHLECVHLKRPPRTDFVCKTCKPMPQRPRRRHSNMNGDHDRDEEEPKAKRPRNSLRLSIDKTARPSNGNNNNNNNNSSVNNNNHRRSGRRTNEHMPLNSAALYDLLEQIMKHKAAWPFLRPVLTSEVPDYHQIIKTPMDLAKIKSKLNMGAYQLNEELLSDIQLVFRNCDLYNVEGNEIYDAGCQLERFVIDRCRDMQLPFRPSDMNGEVKAC

Tests used:
[1] = biological target: T1, Mini-Ph (Drosophila melanogaster) (UniProt P39769); assay: co-sedimentation
T1 sequence: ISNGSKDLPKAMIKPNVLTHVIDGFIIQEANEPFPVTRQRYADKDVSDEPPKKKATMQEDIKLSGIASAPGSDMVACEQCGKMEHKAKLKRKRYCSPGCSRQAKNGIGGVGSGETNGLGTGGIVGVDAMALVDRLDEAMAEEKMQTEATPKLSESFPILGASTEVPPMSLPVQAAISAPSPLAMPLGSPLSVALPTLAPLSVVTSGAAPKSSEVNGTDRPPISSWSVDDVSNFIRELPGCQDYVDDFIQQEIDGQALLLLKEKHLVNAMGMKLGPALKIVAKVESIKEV

Flag-PSC (Drosophila) = Flag-PSC (Drosophila) (UniProt P35820); assay: co-IP

Molecule	binding [1]	binding (Flag-PSC (Drosophila))
p55 (from UniProt Q24572 1-430)	no binding	
B1		binds
B2		binds
B3	no binding	
B4	no binding	
